These are yes or no findings as the source states them, for the method shown.
Biological target: DR_2577 (SlpA), major S-layer protein from Deinococcus radiodurans (Deinococcus radiodurans (endogenous in strain R1, ATCC 13939)) (UniProt Q9RRB6)
Experiment: condition: only harsh denaturation (boiling for 10 min or 6 mM tris-2-carboxy-ethylphosphine) before SDS-PAGE; SDS-PAGE; harsh denaturation: Rotiload and boiling for 10 min, or 6 mM tris-2-carboxy-ethylphosphine at room temperature; polyacrylamide/urea gel; both purified

- binding: no binding
B1: DR_2577 (SlpA), major S-layer protein from Deinococcus radiodurans (natural protein, UniProt Q9RRB6 23-1167, looked up)
chain: APVSAPQVPALTDVPAGHWAKDAIDRLVSRGVILGYPDGTFRGTQNLTRYEAAIIIARLLDQMRDGETPAGMTAEDMTALQNAIQELAADLAALGVRVSDLEANAVSKDDFARLEARIEEVAAAGGEQGATEALQGQIDDLTARVDEYDALRADVDDNASSIAALNDLTVLLNQDILDLQDRVSAVEAAQADFVQRSDFDALGGRVTTVETRVETVNNSLTGRIAALERNAFSVKPSLTIGYSVSRTSRNFDVDRLFPLNADGTVANNAFTSGGIDTDTGAQRRDFGDFGNASDPVVAGAAGLYGFADGVSYTVYFTDGSTATFDGLNPADYKVPTGKVIDTTKGRNGFGFNNLARYKEGSTDIGISLGFDTSGQFSQVTSGTGGSLFSTAGRLQVNQIDLNFGLVTGLPSDAYVDTNGNGKKDDGEATGRGTYLGSGGTAAILRDPAGNVYRPVFFRFKNATTQFSVGNNPVIVTLGQQQKFYFSDYVFDNNYDGRGDGFTVTVDGSNVPVIGAWKPQIKGVYGSRSGLDGTAEAGYGVYYRGVRAQITPVGTLTAGIHYAQEGRDMFGAAQNTTSTPSDVTTYGADLHGKAFGVELHSEYATSRVRPNTANAAVQTSNAFYARVATRKDNLAFDLNTPAAKFGNDTFGVSLYDLNYRKIDAGYNNVAGISEYGYGSYSRTSAQNIAYNPDTGVTAPFANLDRQAYTDANNDGTSDRNADGTVVATNTKIGQMGFGVKAAANLGPVAIGGYYDTSTGANGDNANRMTEAGGSAKVAYSIFSLRGTYNTLDSNRPQIYRDAAGTQIIGDAKVRRYAVQADVTPGLGLFVGAYYRDVNVNGVRSTTDRGLLGRGYLASSFEPGVGNNAYRTGLRCADNNFGTGTRDIDGVGGVLNPAVNLDQSRTATCFTSYGVEAGHAGDNANALVKDLFFRVGYSRVYVPTTATATTGDFSGSVTYGDARYDRKVGVANVRLAGSFSTTNTQLDSRPAGTRGAVGLIVRTDPLENVPFRPQFNGQVGYYTADNRVAAGNYNANATKYGAGVVLNDFLLPQTKIGVRYDGYMAQNRQYTPFDGDGTQGYFSDANNNRRTNLNGVYVEGAYQDLIFSYGTYTLSQKDLNGVEYGSGINNGQPARGQTFKISYKVNF
notes: DR_2577 (SlpA), S-layer protein of Deinococcus radiodurans R1; cysteines at residues 896 and 929; Native protein isolated from the bacterium; It infers that the dimers are held by an intermolecular disulfide bond, and only a computer prediction assigns that bond to Cys929
